Results on 2 molecules are retold here after patent US20220009979A1 (Alexion, published 2022).

The chains behind the UniProt entries cited, without tags or fusion partners. Residues count along the entry.
UniProt P01024, residues 1002-1303: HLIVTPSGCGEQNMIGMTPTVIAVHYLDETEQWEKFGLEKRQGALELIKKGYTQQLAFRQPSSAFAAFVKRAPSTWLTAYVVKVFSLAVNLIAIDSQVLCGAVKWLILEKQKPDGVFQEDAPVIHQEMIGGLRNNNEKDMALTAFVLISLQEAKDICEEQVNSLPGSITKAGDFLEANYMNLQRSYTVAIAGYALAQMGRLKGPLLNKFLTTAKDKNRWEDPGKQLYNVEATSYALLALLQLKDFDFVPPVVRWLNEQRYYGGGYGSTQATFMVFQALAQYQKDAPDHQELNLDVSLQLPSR

Results are given in words; binding and its absence hold for the method and conditions named. Some binding calls cover weakened binding; strength is not graded here.

The target in this test is Purified C3d (Quidel, San Diego, Calif.) (UniProt P01024). In words: Octet Red BLI, biotinylated C3d on streptavidin biosensors, analyte at 2 uM.

B1: Compound AC (Fc fusion)
chain: ISCGSPPPILNGRISYYSTPIAVGTVIRYSCSGTFRLIGEKSLLCITKDKVDGTWDKPAPKCEYFNKYSSCPEPIVPGGYKIRGSTPYRHGDSVTFACKTNFSMNGQKSVWCQANNMWGPTRLPTCVSVFPGGGGSDAAVECPPCPAPPVAGPSVFLFPPKPKDTLMISRTPEVTCVVVDVSQEDPEVQFNWYVDGVEVHNAKTKPREEQFNSTYRVVSVLTVLHQDWLNGKEYKCKVSNKGLPSSIEKTISKAKGQPREPQVYTLPPSQEEMTKNQVSLTCLVKGFYPSDIAVEWESNGQPENNYKTTPPVLDSDGSFFLYSRLTVDKSRWQEGNVFSCSVMHEALHNHYTQKSLSLSLGKGGGGAGGGGAGGGAGGGGSEDCNELPPRRNTEILTGSWSDQTYPEGTQAIYKCRPGYRSLGNVIMVCRKGEWVALNPLRKCQKRPCGHPGDTPFGTFTLTGGNVFEYGVKAVYTCNEGYQLLGEINYRECDTDGWTNDIPICEVVKCLPVTAPENGKIVSSAMEPDREYHFGQAVRFVCNSGYKIEGDEEMHCSDDGFWSKEKPKCVEISCKSPDVINGSPISQKIIYKENERFQYKCNMGYEYSERGDAVCTESGWRPLPSCEEKS
For B1, the binding entry is “binds”.

B2: Compound AQ (Fc fusion)
chain: ISCGSPPPILNGRISYYSTPIAVGTVIRYSCSGTFRLIGEKSLLCITKDKVDGTWDKPAPKCEYFNKYSSCPEPIVPGGYKIRGSTPYRHGDSVTFACKTNFSMNGQKSVWCQANNMWGPTRLPTCVSVFPGGGGSDAAVECPPCPAPPVAGPSVFLFPPKPKDTLMISRTPEVTCVVVDVSQEDPEVQFNWYVDGVEVHNAKTKPREEQFNSTYRVVSVLTVLHQDWLNGKEYKCKVSNKGLPSSIEKTISKAKGQPREPQVYTLPPSQEEMTKNQVSLTCLVKGFYPSDIAVEWESNGQPENNYKTTPPVLDSDGSFFLYSRLTVDKSRWQEGNVFSCSVMHEALHNHYTQKSLSLSLGK
With B2, the binding result is reported as “binds”.
